Values from PubChem BioAssay AID1259327 (Drosophila RNAi Screening Center, 2017)

- Screen: 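Data from controls in screens of zinc and manganese toxicity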
- Cells: Drosophila S2R+ cells
- Knock-down reagent: long dsRNA against Drosophila genes
- Duration: 5 days (water added on day 4, read one day later)
- Treatment: water added as vehicle, no metal, one day before read-out
- Measured: 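Luciferase ATP signal per well, normalised to plate mean, duplicate average converted to z-score across plates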
- Direction: ATP z-score: higher = more total ATP than typical wells; ATP luminescence: higher = more total ATP
- Rule for the call: 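Called active when the ATP z-score exceeds 1.5 or falls below -1.5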
- Meaning of the calls: active = hit: ATP up or down; inactive = no clear ATP change
Here is one part, drawn at random, of about 3,100 deposited reagents. Over the whole deposit, 378 (12%) got an active call. 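Hits include both directions; z-score sign shows ATP rise or fall; raw luminescence values are not plate-normalised.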 Reagents against one gene are numbered here. No sequences are given here. The record does not give: the amount of reagent.

| Gene | reagent no. | ATP z-score, duplicate mean | ATP luminescence, replicate 1 (RLU) | ATP luminescence, replicate 2 (RLU) | Outcome |
| --- | --- | --- | --- | --- | --- |
| CG7384 | 1 | -0.624 | 4.53e5 | 4.16e5 | inactive |
| CG5348 | 1 | 0.167 | 6.64e5 | 6.05e5 | inactive |
| CG5348 | 2 | -1.86 | 3.14e5 | 3.64e5 | active |
| Gr64a | 1 | -1.17 | 4.54e5 | 5.08e5 | inactive |
| Gr64a | 2 | -1.05 | 3.89e5 | 3.99e5 | inactive |
| sog | 1 | 0.633 | 8.70e5 | 9.09e5 | inactive |
| CG11601 | 1 | 0.516 | 8.05e5 | 7.14e5 | inactive |
| CG11601 | 2 | -1.09 | 4.05e5 | 3.77e5 | inactive |
| CG3829 | 1 | 0.896 | 8.48e5 | 8.05e5 | inactive |

Continued, starting with the last 4 of the part before.
| Gene | reagent no. | ATP z-score, duplicate mean | ATP luminescence, replicate 1 (RLU) | ATP luminescence, replicate 2 (RLU) | Outcome |
| --- | --- | --- | --- | --- | --- |
| sog | 1 | 0.633 | 8.70e5 | 9.09e5 | inactive |
| CG11601 | 1 | 0.516 | 8.05e5 | 7.14e5 | inactive |
| CG11601 | 2 | -1.09 | 4.05e5 | 3.77e5 | inactive |
| CG3829 | 1 | 0.896 | 8.48e5 | 8.05e5 | inactive |
| CG42329 | 1 | -0.636 | 5.89e5 | 6.89e5 | inactive |
| ppk18 | 1 | -0.72 | 6.27e5 | 6.72e5 | inactive |
| ppk18 | 2 | -1.13 | 6.24e5 | 5.88e5 | inactive |
| ppk18 | 3 | 0.595 | 5.01e5 | 5.42e5 | inactive |
| senju | 1 | -0.848 | 6.47e5 | 6.26e5 | inactive |
| senju | 2 | 0.383 | 4.96e5 | 5.17e5 | inactive |
| Nmdar1 | 1 | 1.9 | 6.68e5 | 9.99e5 | active |
| Nmdar1 | 2 | 0.86 | 1.04e6 | 9.74e5 | inactive |
| Nmdar1 | 3 | -0.774 | 7.63e5 | 7.45e5 | inactive |
| CG30345 | 1 | -0.666 | 6.27e5 | 7.16e5 | inactive |
| CG30345 | 2 | 0.0256 | 4.62e5 | 4.47e5 | inactive |
| Ork1 | 1 | -0.563 | 6.00e5 | 6.93e5 | inactive |
| Ork1 | 2 | 0.47 | 4.94e5 | 4.75e5 | inactive |
| PIG-T | 1 | 0.941 | 5.38e5 | 6.58e5 | inactive |
| PIG-T | 2 | -0.123 | 4.75e5 | 4.66e5 | inactive |
| PIG-B | 1 | 1.27 | 7.21e5 | 6.53e5 | inactive |
| PIG-B | 2 | 1.14 | 4.98e5 | 5.88e5 | inactive |
| ptc | 1 | -0.461 | 7.25e5 | 6.57e5 | inactive |
| ptc | 2 | 2.51 | 8.39e5 | 8.56e5 | active |
